Experimental data as given in the supplement of paper PMC10849652.
The other results are listed elsewhere or left out.

Protein sequences, listed by entry. Tags and fused reporters are not part of them. Lines headed by an entry give the natural chain unless they say otherwise; changes in a name come on top.
UniProt Q8IXK2: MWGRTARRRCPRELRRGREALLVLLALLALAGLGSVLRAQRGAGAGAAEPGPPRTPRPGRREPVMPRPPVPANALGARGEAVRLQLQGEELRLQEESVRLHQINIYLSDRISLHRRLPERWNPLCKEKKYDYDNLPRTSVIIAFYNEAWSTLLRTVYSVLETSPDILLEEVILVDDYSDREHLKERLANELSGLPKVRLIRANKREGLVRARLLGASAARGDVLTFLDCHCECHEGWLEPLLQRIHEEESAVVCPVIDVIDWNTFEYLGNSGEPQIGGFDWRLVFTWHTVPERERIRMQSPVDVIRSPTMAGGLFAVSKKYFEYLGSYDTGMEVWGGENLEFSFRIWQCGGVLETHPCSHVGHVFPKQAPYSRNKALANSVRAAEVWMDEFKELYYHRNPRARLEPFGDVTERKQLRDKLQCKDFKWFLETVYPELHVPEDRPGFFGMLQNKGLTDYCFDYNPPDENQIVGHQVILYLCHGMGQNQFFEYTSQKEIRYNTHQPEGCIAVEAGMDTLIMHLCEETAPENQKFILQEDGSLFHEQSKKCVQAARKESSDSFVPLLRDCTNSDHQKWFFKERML
UniProt Q7Z7M9: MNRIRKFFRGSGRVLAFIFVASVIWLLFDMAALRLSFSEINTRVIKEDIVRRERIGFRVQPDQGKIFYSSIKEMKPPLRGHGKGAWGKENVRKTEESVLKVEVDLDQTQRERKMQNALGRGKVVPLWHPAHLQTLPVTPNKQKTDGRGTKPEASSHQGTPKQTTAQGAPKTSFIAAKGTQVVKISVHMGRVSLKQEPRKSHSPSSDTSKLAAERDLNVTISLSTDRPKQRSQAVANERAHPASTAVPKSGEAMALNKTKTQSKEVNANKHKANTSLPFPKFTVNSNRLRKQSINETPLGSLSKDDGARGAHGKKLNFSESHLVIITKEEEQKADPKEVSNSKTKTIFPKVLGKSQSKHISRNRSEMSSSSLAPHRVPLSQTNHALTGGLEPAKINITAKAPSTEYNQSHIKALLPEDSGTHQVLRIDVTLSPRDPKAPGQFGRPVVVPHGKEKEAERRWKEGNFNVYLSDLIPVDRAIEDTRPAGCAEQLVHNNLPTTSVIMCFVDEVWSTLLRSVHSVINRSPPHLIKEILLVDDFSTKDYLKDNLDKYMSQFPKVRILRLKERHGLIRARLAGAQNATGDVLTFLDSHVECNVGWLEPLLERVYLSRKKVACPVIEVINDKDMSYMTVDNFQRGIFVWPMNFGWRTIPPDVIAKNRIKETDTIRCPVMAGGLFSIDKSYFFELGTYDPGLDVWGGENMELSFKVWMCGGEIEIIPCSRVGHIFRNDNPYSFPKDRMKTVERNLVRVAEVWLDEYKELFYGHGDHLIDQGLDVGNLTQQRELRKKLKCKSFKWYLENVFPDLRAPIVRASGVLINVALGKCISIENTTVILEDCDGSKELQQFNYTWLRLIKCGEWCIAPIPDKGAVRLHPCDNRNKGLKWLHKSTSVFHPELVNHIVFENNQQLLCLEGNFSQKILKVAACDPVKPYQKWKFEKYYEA
UniProt Q14697: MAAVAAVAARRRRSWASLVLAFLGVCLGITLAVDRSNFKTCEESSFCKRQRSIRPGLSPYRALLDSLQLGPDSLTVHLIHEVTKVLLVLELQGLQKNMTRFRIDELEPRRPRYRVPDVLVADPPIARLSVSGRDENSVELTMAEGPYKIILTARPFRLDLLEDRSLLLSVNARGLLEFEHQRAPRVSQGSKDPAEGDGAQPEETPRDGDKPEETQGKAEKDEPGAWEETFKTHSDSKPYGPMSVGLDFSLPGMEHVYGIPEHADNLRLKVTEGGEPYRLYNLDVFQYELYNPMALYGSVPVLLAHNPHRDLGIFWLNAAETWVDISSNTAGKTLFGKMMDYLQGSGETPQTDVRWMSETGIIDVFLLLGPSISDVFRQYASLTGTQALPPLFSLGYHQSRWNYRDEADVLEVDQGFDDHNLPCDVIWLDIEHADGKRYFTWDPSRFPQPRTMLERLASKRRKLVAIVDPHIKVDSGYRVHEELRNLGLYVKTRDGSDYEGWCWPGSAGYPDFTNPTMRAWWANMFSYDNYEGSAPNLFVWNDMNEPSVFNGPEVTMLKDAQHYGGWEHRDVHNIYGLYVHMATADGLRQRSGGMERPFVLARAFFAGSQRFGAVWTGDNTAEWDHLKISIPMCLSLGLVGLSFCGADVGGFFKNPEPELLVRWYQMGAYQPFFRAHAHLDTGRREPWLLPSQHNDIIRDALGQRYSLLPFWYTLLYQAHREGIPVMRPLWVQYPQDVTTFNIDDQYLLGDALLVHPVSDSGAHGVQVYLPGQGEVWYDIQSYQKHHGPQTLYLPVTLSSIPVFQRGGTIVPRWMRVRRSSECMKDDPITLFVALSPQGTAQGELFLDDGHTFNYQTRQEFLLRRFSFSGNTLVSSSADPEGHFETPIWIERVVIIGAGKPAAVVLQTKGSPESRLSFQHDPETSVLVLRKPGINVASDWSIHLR
UniProt Q9UJY5: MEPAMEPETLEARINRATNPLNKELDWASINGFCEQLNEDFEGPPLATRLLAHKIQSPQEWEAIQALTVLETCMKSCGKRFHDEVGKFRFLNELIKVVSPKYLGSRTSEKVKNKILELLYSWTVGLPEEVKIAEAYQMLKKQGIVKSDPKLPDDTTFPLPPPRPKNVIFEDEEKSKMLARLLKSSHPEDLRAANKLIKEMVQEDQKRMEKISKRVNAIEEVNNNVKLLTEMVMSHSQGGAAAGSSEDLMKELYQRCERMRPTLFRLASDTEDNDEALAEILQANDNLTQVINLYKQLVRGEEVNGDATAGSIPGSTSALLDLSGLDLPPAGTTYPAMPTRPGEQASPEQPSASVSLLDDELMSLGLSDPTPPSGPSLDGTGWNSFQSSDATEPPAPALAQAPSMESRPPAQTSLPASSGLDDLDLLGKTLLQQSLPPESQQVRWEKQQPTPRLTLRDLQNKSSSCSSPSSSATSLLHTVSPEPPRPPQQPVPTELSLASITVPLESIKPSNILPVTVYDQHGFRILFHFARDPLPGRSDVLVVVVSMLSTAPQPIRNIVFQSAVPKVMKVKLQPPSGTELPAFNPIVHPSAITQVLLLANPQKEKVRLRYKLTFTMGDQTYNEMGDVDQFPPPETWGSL
UniProt Q92820: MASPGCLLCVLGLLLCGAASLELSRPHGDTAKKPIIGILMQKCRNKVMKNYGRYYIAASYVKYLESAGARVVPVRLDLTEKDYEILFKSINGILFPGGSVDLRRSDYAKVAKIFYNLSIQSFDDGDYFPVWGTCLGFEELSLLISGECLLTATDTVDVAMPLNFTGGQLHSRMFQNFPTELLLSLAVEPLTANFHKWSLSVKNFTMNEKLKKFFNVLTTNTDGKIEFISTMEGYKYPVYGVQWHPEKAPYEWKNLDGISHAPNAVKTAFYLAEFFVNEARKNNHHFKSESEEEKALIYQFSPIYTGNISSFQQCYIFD
UniProt Q14376: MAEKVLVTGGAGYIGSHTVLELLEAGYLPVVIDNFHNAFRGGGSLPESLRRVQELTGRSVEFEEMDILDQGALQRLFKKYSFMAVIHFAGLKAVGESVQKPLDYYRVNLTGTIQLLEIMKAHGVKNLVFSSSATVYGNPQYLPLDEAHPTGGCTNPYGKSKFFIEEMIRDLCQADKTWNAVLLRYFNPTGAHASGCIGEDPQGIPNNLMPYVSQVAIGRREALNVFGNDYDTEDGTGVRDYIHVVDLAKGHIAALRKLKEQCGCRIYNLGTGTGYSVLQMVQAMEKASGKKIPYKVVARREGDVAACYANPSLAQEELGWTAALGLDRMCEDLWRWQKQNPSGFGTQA
UniProt P34059: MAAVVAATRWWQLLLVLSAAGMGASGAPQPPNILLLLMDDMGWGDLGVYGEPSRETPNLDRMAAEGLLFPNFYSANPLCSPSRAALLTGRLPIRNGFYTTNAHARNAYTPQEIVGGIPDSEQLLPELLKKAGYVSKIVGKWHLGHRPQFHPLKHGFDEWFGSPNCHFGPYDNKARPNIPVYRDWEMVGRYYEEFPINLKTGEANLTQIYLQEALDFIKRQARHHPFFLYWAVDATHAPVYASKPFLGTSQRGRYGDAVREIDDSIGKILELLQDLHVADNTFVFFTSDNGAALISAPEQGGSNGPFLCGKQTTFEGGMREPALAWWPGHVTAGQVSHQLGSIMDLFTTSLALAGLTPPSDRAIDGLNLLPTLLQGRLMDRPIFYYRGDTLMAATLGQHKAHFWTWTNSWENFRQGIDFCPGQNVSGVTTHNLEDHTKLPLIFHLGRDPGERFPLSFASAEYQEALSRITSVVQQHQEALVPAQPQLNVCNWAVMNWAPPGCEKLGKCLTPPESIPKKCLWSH
UniProt Q9H3K2: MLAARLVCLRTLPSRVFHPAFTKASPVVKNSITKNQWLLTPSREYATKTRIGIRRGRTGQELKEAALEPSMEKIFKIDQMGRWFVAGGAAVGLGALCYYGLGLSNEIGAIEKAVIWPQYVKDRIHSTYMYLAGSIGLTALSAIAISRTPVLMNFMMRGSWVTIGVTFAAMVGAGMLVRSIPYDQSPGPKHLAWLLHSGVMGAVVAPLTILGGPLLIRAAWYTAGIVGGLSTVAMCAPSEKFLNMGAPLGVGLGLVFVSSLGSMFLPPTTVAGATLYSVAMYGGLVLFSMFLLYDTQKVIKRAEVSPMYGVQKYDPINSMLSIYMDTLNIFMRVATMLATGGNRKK
UniProt P11413, whole entry, looked up: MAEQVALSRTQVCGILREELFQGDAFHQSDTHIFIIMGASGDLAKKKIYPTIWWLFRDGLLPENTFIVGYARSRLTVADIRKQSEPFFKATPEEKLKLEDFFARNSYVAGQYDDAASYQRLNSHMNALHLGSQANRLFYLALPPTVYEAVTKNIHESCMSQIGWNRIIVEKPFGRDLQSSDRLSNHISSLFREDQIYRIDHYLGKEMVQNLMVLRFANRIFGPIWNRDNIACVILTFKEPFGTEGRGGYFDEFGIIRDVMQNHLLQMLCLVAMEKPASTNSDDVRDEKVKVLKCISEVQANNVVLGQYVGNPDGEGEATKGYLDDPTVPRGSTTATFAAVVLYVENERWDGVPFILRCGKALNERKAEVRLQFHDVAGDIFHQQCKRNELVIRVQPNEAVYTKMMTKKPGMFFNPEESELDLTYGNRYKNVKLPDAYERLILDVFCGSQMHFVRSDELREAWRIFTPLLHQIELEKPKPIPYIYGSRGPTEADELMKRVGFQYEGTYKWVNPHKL
UniProt Q96C23: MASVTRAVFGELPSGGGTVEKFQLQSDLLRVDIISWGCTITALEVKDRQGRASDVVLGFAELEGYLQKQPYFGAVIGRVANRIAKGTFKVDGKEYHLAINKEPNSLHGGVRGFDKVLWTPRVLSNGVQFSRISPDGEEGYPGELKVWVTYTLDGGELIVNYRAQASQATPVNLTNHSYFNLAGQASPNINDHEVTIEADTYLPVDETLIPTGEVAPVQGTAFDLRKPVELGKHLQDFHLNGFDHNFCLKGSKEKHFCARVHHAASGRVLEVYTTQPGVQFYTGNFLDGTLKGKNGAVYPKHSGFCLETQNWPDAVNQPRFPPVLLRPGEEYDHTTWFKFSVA
UniProt Q96RP9: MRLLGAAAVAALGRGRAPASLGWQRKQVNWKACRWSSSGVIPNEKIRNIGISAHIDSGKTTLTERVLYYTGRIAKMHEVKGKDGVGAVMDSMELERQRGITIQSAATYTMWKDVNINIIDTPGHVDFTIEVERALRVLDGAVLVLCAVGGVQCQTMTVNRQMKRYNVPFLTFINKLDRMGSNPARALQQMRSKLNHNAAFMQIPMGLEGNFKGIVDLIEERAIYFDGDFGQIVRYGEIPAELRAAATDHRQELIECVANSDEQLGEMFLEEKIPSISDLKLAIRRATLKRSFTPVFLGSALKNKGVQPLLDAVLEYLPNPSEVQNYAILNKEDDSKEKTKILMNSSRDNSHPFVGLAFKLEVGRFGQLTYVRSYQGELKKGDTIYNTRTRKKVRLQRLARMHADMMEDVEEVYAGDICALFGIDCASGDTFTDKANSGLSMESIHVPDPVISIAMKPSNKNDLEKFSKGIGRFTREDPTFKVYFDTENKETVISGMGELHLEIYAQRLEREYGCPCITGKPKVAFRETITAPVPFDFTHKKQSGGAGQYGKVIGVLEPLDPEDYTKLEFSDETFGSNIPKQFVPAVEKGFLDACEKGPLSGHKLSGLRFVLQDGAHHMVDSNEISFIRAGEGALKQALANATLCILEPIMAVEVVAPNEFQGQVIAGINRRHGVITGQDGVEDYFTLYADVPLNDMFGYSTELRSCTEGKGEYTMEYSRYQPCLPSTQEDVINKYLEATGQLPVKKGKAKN
UniProt P30047: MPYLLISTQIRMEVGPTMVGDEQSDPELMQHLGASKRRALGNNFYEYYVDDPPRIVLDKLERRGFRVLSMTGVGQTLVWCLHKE

Compound: Cc1cc(Nc2cc(CN3CCOCC3)c3nc(C)c(Cc4ccc(Cl)cc4F)n3n2)n[nH]1 [gandotinib]
Test: log2 fold change, soluble protein after heating vs DMSO (PISA); higher = thermal stabilisation; K562 cells, 10 uM, 30 min; active = over 0.2 and 3.5 SD of the protein, either way, in both replicates (recomputed)
In short: (§1)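 K562 cells at 2×10^6 cells/mL were given 10 μM compound for 30 min. Aliquots then went through 3 min of heating across 48°C-58°C, were pooled, and were extracted in PBS with 0.5% NP-40 at 4°C, and the supernatant after 21,000xg for 90 min was quantified by TMTpro 16plex LC-MS/MS with channel sums equalised. Thermal stability relative to control samples, from duplicates, is given as log2 fold change.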

log2 fold change, inactive:
GALNT12 (UniProt Q8IXK2) 0.047
GALNT5 (UniProt Q7Z7M9) 0.038
GANAB isoform 2 (UniProt Q14697) 0.037
GGA1 isoform 6 (UniProt Q9UJY5) -0.132
GGH (UniProt Q92820) 0.02
GALE (UniProt Q14376) 0.017
GALNS (UniProt P34059) 0.053
GHITM (UniProt Q9H3K2) -0.097
G6PD isoform 2 (UniProt P11413) -0.088
GALM (UniProt Q96C23) -0.057
GFM1 (UniProt Q96RP9) -0.075

Compound: Cc1cc(Nc2cc(N3CCN(C)CC3)nc(Sc3ccc(NC(=O)C4CC4)cc3)n2)n[nH]1 [tozasertib]
Test: as above
In short: as §1

log2 fold change, inactive:
GCAT isoform 2 (UniProt O75600) -0.093
GAR1 (UniProt Q9NY12) 0.018
GATAD2A isoform 3 (UniProt Q86YP4) 0.098
FXR1 (UniProt P51114) -0.032
FYCO1 isoform 4 (UniProt Q9BQS8) 0.012
G3BP2 (UniProt Q9UN86) 0.053
GALNT7 (UniProt Q86SF2) 0.004
GAN (UniProt Q9H2C0) -0.077
FRG1 (UniProt Q14331) 0
GGA3 (UniProt Q9NZ52) 0.063
GCHFR (UniProt P30047) -0.245
FUS (UniProt P35637) -0.033
GALK2 (UniProt Q01415) -0.017
GAMT (UniProt Q14353) 0.051
FTH1 (UniProt P02794) 0.029
GCLC (UniProt P48506) -0.033
FUBP1 (UniProt Q96AE4) -0.006
GAGE2A (UniProt Q6NT46) -0.092
FXR2 (UniProt P51116) 0.052
G3BP1 (UniProt Q13283) 0.004
GEMIN4 (UniProt P57678) 0.032
GGCT (UniProt O75223) 0.006
FTSJ1 (UniProt Q9UET6) -0.014
GALNT12 (UniProt Q8IXK2) 0.023
GALNT5 (UniProt Q7Z7M9) 0.012
GANAB isoform 2 (UniProt Q14697) 0.027
GGA1 isoform 6 (UniProt Q9UJY5) -0.004
GGH (UniProt Q92820) 0.01
GALE (UniProt Q14376) -0.023
GALNS (UniProt P34059) -0.031
GHITM (UniProt Q9H3K2) -0.012
G6PD isoform 2 (UniProt P11413) -0.018
GALM (UniProt Q96C23) -0.038
GFM1 (UniProt Q96RP9) -0.005

Compound: Cc1cc(SCc2sc(-c3ccc(C(F)(F)F)cc3)nc2C)ccc1OCC(=O)O
Test: as above
In short: as §1

log2 fold change, inactive:
GCAT isoform 2 (UniProt O75600) 0.057
GAR1 (UniProt Q9NY12) 0.04
GATAD2A isoform 3 (UniProt Q86YP4) 0.147
FXR1 (UniProt P51114) 0.117
FYCO1 isoform 4 (UniProt Q9BQS8) 0.041
G3BP2 (UniProt Q9UN86) -0.006
GALNT7 (UniProt Q86SF2) 0.004
GAN (UniProt Q9H2C0) -0.014
FRG1 (UniProt Q14331) 0.069
GGA3 (UniProt Q9NZ52) 0.039
GCHFR (UniProt P30047) -0.064
FUS (UniProt P35637) -0.019
GALK2 (UniProt Q01415) 0.012
GAMT (UniProt Q14353) -0.037
FTH1 (UniProt P02794) 0.051
GCLC (UniProt P48506) -0.003
FUBP1 (UniProt Q96AE4) 0.064
GAGE2A (UniProt Q6NT46) 0.026
FXR2 (UniProt P51116) 0.084
G3BP1 (UniProt Q13283) 0.018
GEMIN4 (UniProt P57678) 0.095
GGCT (UniProt O75223) 0.002
FTSJ1 (UniProt Q9UET6) 0
GALNT12 (UniProt Q8IXK2) 0.21
GALNT5 (UniProt Q7Z7M9) -0.017
GANAB isoform 2 (UniProt Q14697) 0.059
GGA1 isoform 6 (UniProt Q9UJY5) 0.055
GGH (UniProt Q92820) -0.013
GALE (UniProt Q14376) 0
GALNS (UniProt P34059) 0.014
GHITM (UniProt Q9H3K2) -0.006
G6PD isoform 2 (UniProt P11413) 0.012
GALM (UniProt Q96C23) -0.016
GFM1 (UniProt Q96RP9) 0.06
